Source: patent US10314877B2, “Method for lymph drainage” (ABOCA S.P.A. SOCIETÀ AGRICOLA, priority 2015, dated 2019)

Tested on: mice
Assay: Diuretic activity test
Assay type: in vivo
Details: 10 mg/kg by gastric probe at t=0, positive control
Protocol: The animals were housed in metabolic cages (three mice/cage) and were allowed free access to food and drinking water (commercial oligomineral water). In order to obtain similar physiological states of hydration, gavage of oligomineral water of 2.5% body weight was administered to all groups of animals 2 hours before the experiment.
The animals were then divided randomly into groups (9 mice/group) in accordance with the following treatment schema:
3. Furosemide: 100 microl/mouse of furosemide were administered at 10 mg/kg in oligomineral water by means of gastric probe at t=0 (positive control)
4—Goldenrod: 100 microl/mouse of goldenrod extract (200 mg/kg body weight in oligomineral water) were administered by means of gastric probe at t=0
5—Orthosiphon: 100 microl/mouse of extract of orthosiphon (200 mg/kg body weight in oligomineral water) were administered a t=0
6—Goldenrod: orthosiphon (3:1): 100 microl/mouse of co-extract goldenrod+orthosiphon (200 mg/kg body weight in oligomineral water) were administered by gastric probe at t=0
In order to assess the diuretic activity of the compounds, samples of urine were collected in graduated cylinders, and the volume thereof was recorded at intervals of 2 h up to a total of 8 hours.
The urinary excretion, independently of the weight of the animals, was calculated as total diuresis divided by the volume of total liquid administered. […]

Structure (SMILES): NS(=O)(=O)c1cc(C(=O)O)c(NCc2ccco2)cc1Cl [furosemide]
- urinary excretion: approximately 3.9 ml
